These are yes or no findings as the source states them, for the method shown. Some entries that bind do so weakly or less than the wild type.
What was measured:
[1] = target: canine PD-1 protein amino acids 25-168 with His tag (canine); assay: ELISA on PD-1 His
[2] = target: canine PD-1 protein amino acids 25-168 with His tag (canine); assay: Octet BLI on PD-1 His
[3] = target: PD1 on the surface of T cells (canine PBMC stimulated with ConA) (canine); assay: flow cytometry, FIG. 14
[4] = target: PD1 on the surface of T cells (canine PBMC stimulated with ConA) (canine); assay: flow cytometry on ConA-stimulated canine PBMC

| Binder | binding [1] | binding [2] | binding [3] | binding [4] |
| --- | --- | --- | --- | --- |
| PD-1 A-M11 (antibody, V domains shown, Mouse IgG1 kappa, hybridoma supernatant; The VL is therefore uncertain; also called 9B04) VH: EVQLQQSGAEVVKPGASVKLSCTASGFNIKDTYMHWVKQRPEQGLEWIGRIDPAIGNPKYDPKFQGRATITADTSSNTAYLQLSSLTSEDTAVYYCASGFYAMDCWGQGTSVTVSS VL: QIVLTQSPAIMSASPGEKVTMTCSASSSITYMFWYQQKPGSSPRLWIYDTSNLVSGVPARFSGSKSGTSYSLTITSMEAEDAATYYCQQYSGYPSTFGSGTKLEIK | binds | binds | – | – |
| caninized monoclonal antibody C3 (antibody, V domains shown, Variable domains as for M3; also called C3(36.39); 36.39) VH: EVRLQQSGAELVKPGASVKLSCTASGFNIKDTYLHWLKERPEQGLEWIGRIDPAIGNTRYDPKFQVKATITADTSSNTAYLQLSSLTSEDSAVYYCARGFYGMDYWGQGTSVTVSS VL: QIVLTQSPAIMSASPGEKVTMTCSASSSVSYMFWYQQKPGSSPRLWIYDTSNLVSGVPARFSGSRSGTSYSLTISSMEAEDAATYYCQQYSGYPYTFGGGTKLEIKR | – | – | binds | binds |
| caninized monoclonal antibody C11 (antibody, V domains shown, Variable domains as for M11; also called C11(37.40); 37.40) VH: EVQLQQSGAEVVKPGASVKLSCTASGFNIKDTYMHWVKQRPEQGLEWIGRIDPAIGNPKYDPKFQGRATITADTSSNTAYLQLSSLTSEDTAVYYCASGFYAMDCWGQGTSVTVSS VL: QIVLTQSPAIMSASPGEKVTMTCSASSSITYMFWYQQKPGSSPRLWIYDTSNLVSGVPARFSGSKSGTSYSLTITSMEAEDAATYYCQQYSGYPSTFGSGTKLEIKR | – | – | binds | binds |

Source: US20220324977A1 (BEIJING SINOGENE BIOTECHNOLOGY, published 2022)
